Source: PubChem BioAssay (NCATS)
Listed are the inconclusive results; actives and inactives stand elsewhere. Unless noted, calls follow the shape of the dose curve; as a rule, active = well fitted curve in the direction sought with a large enough effect; inconclusive = small, poorly fitted or top-dose-only effect, or another doubt; inactive = no such curve, though single readings can be large; an effect the other way counts as inactive or inconclusive. Some salts or complexes appear as unconnected parts, following the source record.

The chains behind the UniProt entries cited, without tags or fusion partners.
UniProt P08684, whole entry: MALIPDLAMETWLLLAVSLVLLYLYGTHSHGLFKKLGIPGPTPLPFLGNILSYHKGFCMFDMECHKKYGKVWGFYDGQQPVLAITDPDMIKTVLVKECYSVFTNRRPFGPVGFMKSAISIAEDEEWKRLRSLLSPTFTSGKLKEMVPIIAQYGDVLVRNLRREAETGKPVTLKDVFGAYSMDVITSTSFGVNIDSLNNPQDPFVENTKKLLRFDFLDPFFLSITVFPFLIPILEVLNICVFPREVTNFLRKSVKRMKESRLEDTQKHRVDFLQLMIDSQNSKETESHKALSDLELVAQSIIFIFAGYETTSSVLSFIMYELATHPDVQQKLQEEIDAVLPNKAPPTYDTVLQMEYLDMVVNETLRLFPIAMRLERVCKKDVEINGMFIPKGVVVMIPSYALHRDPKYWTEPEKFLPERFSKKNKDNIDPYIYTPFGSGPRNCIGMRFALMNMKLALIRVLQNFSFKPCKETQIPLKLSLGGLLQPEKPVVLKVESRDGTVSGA

How the values were obtained:
[1] = target: Cytochrome P450 3A4 (Homo sapiens) (UniProt P08684); experiment: Cytochrome P450 family 3 subfamily A member 4 (CYP3A4) small molecule antagonists: luciferase qHTS assay (AID 1645841; active = well fitted curve in the direction sought with a large enough effect in the repeat runs; inconclusive = weak or mixed curves; inactive = no such curve, though single readings can be large; an effect the other way counts as inactive or inconclusive; also: nearly all actives have a fitted effect of over 45% in size); details: P450-Glo CYP3A4 enzyme assay, luciferin luminescence
3D7 = experiment: qHTS profiling for inhibitors of Plasmodium falciparum proliferation (AID 504749); also: nearly all actives have a fitted effect of over 60% in size; details: P. falciparum in erythrocytes, SYBR Green DNA, 72 h
In short: (§1)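 Fluorescence of SYBR Green-bound parasite DNA, read at 485/535 nm, served as the growth measure. Infected erythrocytes were cultured with compound 72 h; artemisinin (0.29 uM) and DMSO wells defined the normalization range.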

CP191 = experiment: as above; details: P. falciparum in erythrocytes, SYBR Green DNA, 72 h
In short: as §1

CP201 = experiment: as above; details: P. falciparum in erythrocytes, SYBR Green DNA, 72 h
In short: as §1

CP203 = experiment: as above; details: P. falciparum in erythrocytes, SYBR Green DNA, 72 h
In short: as §1

CP215 = experiment: as above; details: P. falciparum in erythrocytes, SYBR Green DNA, 72 h
In short: as §1

CP238 = experiment: as above; details: P. falciparum in erythrocytes, SYBR Green DNA, 72 h
In short: as §1

CP247 = experiment: as above; details: P. falciparum in erythrocytes, SYBR Green DNA, 72 h
In short: as §1

CP266 = experiment: as above; details: P. falciparum in erythrocytes, SYBR Green DNA, 72 h
In short: as §1

CP269 = experiment: as above; details: P. falciparum in erythrocytes, SYBR Green DNA, 72 h
In short: as §1

CP315 = experiment: as above; details: P. falciparum in erythrocytes, SYBR Green DNA, 72 h
In short: as §1

DIV14 = experiment: as above; details: P. falciparum in erythrocytes, SYBR Green DNA, 72 h
In short: as §1

DIV17 = experiment: as above; details: P. falciparum in erythrocytes, SYBR Green DNA, 72 h
In short: as §1

DIV30 = experiment: as above; details: P. falciparum in erythrocytes, SYBR Green DNA, 72 h
In short: as §1

ECU = experiment: as above; details: P. falciparum in erythrocytes, SYBR Green DNA, 72 h
In short: as §1

FAB9 = experiment: as above; details: P. falciparum in erythrocytes, SYBR Green DNA, 72 h
In short: as §1

GB4 = experiment: as above; details: P. falciparum in erythrocytes, SYBR Green DNA, 72 h
In short: as §1

PC15 = experiment: as above; details: P. falciparum in erythrocytes, SYBR Green DNA, 72 h
In short: as §1

PC26 = experiment: as above; details: P. falciparum in erythrocytes, SYBR Green DNA, 72 h
In short: as §1

PC49 = experiment: as above; details: P. falciparum in erythrocytes, SYBR Green DNA, 72 h
In short: as §1

SC27B = experiment: as above; details: P. falciparum in erythrocytes, SYBR Green DNA, 72 h
In short: as §1

W2 = experiment: as above; details: P. falciparum in erythrocytes, SYBR Green DNA, 72 h
In short: as §1

[2] = test system: Nanoluciferase (engineered Oplophorus gracilirostris luciferase); experiment: Primary Nanoluciferase (NLuc) qHTS assay for identification of artifact compounds. (AID 1845222); details: NLuc-conditioned medium, Nano-Glo luminescence, 5 min
In short: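 Concentration-response data were obtained by luminescence after 5 min with Nano-Glo substrate at 1:100. The enzyme was diluted S16 NLuc-expressing cell medium, preincubated with compound for 15 min at RT. Curves were fitted with a 4-parameter Hill model.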

[3] = Primary redox qHTS assay for identification of artifact compounds. (AID 1845223); details: Amplex Red/HRP redox cycling with DTT, fluorescence
In short: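 Redox-cycling detection via DTT (250 uM final) oxidation coupled to Amplex Red (25 uM)/HRP (250 mU/mL) in HBSS. 15 min preincubation plus 30 min after DTT, room temperature. Ex/Em 525/598 nm; 4-parameter Hill fit against DMSO and 10 uM DA3003.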

HEK293 = experiment: Cytotoxic Profiling of Annotated Libraries Using Quantitative High-Throughput Screening (AID 1296008); details: Five cell lines viability, CellTiter-Glo ATP luminescence, 48-72 h; also: nearly all actives have a fitted effect of over 60% in size
In short: (§2)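 Compounds were pin-transferred onto cells and incubated 48 or 72 hr at 37 degree Celsius, 95% humidity. CellTiter-Glo was added, plates sat 10 min at room temperature, then ATP-coupled luminescence was imaged as the viability read-out.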

[4] = P-glycoprotein substrates identified in KB-8-5-11 adenocarcinoma cell line, qHTS therapeutic library screen (AID 1346987); details: KB-8-5-11 (P-gp overexpressing) viability, CellTiter-Glo, 72 h; also: nearly all actives have a fitted effect of over 65% in size
In short: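 Human cervical adenocarcinoma KB-8-5-11 cells, selected in colchicine to over-express P-gp and assayed without it, were exposed for 72 h to titrated compounds. An ATP-based luminescent viability signal gave AC50.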

[5] = Primary qHTS to identify inhibitors of SARS-CoV-2 cell entry (AID 1645846; calls by dose curve; also: nearly all actives have a fitted effect of over 45% in size); details: SARS-CoV-2 pseudovirus cell entry assay, luminescence
In short: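 Luminescence readout (Bright-Glo luciferase) 48 h after pseudoparticle addition. HEK293-ACE2 cells, 1500/well; compound pre-incubation 1 h; Normalized to spike PP and bald PP.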

[6] = Primary qHTS for inhibitors of nuclear receptor binding SET domain protein 2 (NSD2) in an isogenic RCH-ACV NSD2 p.E1099K mutant (9B) (AID 1645876); details: RCH-ACV NSD2 E1099K (9B) viability, CellTiter-Glo, 72 h; also: nearly all actives have a fitted effect of over 70% in size
[7] = Primary qHTS for inhibitors of nuclear receptor binding SET domain protein 2 (NSD2) in an RCH-ACV wild type WT cells (2C) (AID 1645877); details: RCH-ACV (leukaemia line) NSD2 WT (2C) viability, CellTiter-Glo, 72 h; also: nearly all actives have a fitted effect of over 70% in size
NIH3T3 = experiment: Cytotoxic Profiling of Annotated Libraries Using Quantitative High-Throughput Screening (AID 1296008); details: Five cell lines viability, CellTiter-Glo ATP luminescence, 48-72 h; also: nearly all actives have a fitted effect of over 60% in size
In short: as §2

Measured: Potency
Potency is read from the fitted curve at half-maximal effect.

O=[N+]([O-])OCC(CO[N+](=O)[O-])(CO[N+](=O)[O-])CO[N+](=O)[O-]
inconclusive: [1] 37.9 µM | 3D7 = 17.8 µM | CP191 = 17.8 µM | CP201 = 15.1 µM | CP203 = 13.5 µM | CP215 = 16.9 µM | CP238 = 12.6 µM | CP247 = 11.2 µM | CP266 = 15.1 µM | CP269 = 15.1 µM | CP315 = 13.5 µM | DIV14 = 9.53 µM | DIV17 = 12 µM | DIV30 = 19 µM | ECU 10 µM | FAB9 = 17.8 µM | GB4 = 19 µM | PC15 = 17.8 µM | PC26 = 13.5 µM | PC49 = 11.2 µM | SC27B 14.1 µM | W2 = 4.78 µM

C/C1=C2N=C(/C=C3N=C(/C(C)=C4\N=C(C(CC(N)=O)C4(C)CCC(=O)NCC(C)OP(=O)([O-])OC4C(CO)OC(n5cnc6cc(C)c(C)cc65)C4O)C4(C)N=C1C(CCC(N)=O)C4(C)CC(N)=O)C(CCC(N)=O)C\3(C)C)C(CCC(N)=O)C/2(C)CC(N)=O.[C-]#N.[Co] (configuration not stated)
inconclusive: [2] 13.1 µM | [3] 11.6 µM | HEK293 = 14.2 µM

CCn1c(=O)n([C@@H]2CCN(CC3CCCCCCC3)C[C@H]2CO)c2ccccc21
inconclusive: [4] 6.51 µM | [5] 20 µM | [6] 37.2 µM | [7] 20.9 µM | [3] 5.97 µM | HEK293 = 29.1 µM | NIH3T3 = 29.1 µM
